Results are given in words; binding and its absence hold for the method and conditions named. Binding seen in cells or lysates may run through a third protein. These calls come from enrichment with a bait or labelling near it, and not all partners need be listed. Where a sequence is shown, tags or fusion partners need not be part of it.

Protein sequences, listed by entry. Tags and fused reporters are not part of them.
UniProt Q9Y265: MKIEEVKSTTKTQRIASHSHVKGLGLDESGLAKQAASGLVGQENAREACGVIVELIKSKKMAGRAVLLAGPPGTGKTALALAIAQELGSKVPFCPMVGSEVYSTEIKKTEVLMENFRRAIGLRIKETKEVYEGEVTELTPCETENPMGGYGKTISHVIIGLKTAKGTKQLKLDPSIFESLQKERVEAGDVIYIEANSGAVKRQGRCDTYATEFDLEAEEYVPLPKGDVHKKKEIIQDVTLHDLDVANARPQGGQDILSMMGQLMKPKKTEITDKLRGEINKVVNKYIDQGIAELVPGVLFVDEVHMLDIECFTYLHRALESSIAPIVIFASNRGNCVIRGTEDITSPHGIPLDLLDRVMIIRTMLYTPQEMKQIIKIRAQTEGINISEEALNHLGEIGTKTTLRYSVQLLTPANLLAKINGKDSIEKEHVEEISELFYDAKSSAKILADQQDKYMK

This assay deals with T1, ITFG1-Myc (human LINKIN) (human) (UniProt Q8TB96).
T1 sequence: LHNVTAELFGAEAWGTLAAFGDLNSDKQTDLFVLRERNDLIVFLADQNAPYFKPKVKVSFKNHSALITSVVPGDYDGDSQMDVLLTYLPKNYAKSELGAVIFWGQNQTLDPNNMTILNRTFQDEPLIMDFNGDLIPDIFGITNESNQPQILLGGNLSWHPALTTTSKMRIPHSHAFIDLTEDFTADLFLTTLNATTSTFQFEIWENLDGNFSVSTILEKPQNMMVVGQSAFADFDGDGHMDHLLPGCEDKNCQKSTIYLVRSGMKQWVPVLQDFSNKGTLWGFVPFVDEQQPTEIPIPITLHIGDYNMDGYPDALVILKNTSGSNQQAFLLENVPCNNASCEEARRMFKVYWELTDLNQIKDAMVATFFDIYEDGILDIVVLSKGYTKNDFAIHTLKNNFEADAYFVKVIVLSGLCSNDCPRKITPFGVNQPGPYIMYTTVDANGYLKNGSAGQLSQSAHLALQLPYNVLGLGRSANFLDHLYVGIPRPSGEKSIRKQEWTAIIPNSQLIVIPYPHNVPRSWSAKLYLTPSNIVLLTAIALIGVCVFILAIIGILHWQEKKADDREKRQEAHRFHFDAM
Briefly: affinity purification with mass spectrometry; SILAC; Myc-beads immunoprecipitation from lysate of ITFG1-Myc-transfected HEK 293T cells (light) against non-transfected cells (heavy Arg6, Lys8); lysis buffer 50 mM HEPES pH 7.5, 70 mM KOAc, 5 mM Mg(OAc)2, 0.2% n-dodecyl-β-D-maltoside; 4°C, 1 hr; LC-MS/MS.
For RUVBL1 (from UniProt Q9Y265 1-456), the binding result is “binds”.

For the substance “α-tubulin (human (endogenous in HEK 293T))”, the binding entry was “binds”.

In the case of “β-tubulin (human (endogenous in HEK 293T))”, the binding result was “binds”.

The values above are taken from paper PMC4275582.
